In PMC7719180 one finds binding data, which are given here for one substance.

By UniProt entry, the sequences of proteins in these tests, tags left out.
UniProt P14618: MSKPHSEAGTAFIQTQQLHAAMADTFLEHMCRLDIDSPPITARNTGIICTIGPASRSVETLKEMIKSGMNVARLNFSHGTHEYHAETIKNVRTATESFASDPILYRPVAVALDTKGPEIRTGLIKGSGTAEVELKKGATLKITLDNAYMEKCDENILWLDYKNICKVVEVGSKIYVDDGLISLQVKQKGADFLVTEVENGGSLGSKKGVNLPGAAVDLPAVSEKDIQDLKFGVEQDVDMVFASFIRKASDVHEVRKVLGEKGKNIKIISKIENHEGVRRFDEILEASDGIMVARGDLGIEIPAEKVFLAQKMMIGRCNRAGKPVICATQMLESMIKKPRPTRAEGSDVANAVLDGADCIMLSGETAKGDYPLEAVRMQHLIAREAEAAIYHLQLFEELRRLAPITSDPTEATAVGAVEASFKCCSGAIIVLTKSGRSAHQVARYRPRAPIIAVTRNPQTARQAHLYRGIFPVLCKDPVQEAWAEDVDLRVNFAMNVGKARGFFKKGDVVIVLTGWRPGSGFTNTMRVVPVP

In the assay the target is T1, HA-HDAC8 (histone deacetylase 8) (UniProt Q9BY41).
T1 sequence: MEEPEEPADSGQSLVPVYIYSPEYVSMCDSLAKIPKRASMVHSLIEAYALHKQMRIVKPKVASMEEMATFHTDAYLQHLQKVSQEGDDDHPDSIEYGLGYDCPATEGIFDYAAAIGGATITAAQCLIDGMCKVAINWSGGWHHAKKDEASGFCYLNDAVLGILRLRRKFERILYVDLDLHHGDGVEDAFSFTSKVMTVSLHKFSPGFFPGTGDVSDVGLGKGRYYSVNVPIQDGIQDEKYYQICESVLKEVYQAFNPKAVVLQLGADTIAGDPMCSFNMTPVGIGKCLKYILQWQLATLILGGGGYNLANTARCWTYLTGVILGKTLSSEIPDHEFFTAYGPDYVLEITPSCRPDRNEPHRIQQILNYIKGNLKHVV
The assay is described as follows: co-IP; HEK293T co-transfected with HA- and Flag-tagged proteins, 48 h; lysate with anti-HA beads overnight at 4 °C; western blot with Flag and HA antibodies.

No constants are given. Whether binding was seen depends on the method and setting. In cells and extracts the contact can be indirect. Some results given as binding are weak or reduced against the parent protein; the word gives no strength. Sequences can lack the tags named with a protein.

For the substance “Flag-PKM2 (pyruvate kinase M2) (from UniProt P14618 1-531) (enzyme)”, the binding entry was “binds”.
